Measured values: US6545041B2, “Tumor necrosis factor alpha (TNF-α) inhibiting pharmaceuticals” (Yessum Research Development Co. of the Hebrew University of …, priority 1995, dated 2003)
Some of these results come from one statement about several compounds together.

Tested on: collagen induced arthritis
Test: Collagen type 2 induced arthritis
Type: in vivo, CD-1 male mice
Experimental: CD-1 male mice (27-33 gr.), five in each treatment group (supplied by Harlan Israel) were used in the present study. Each animal was administered with collagen type 2 (Sigma, batch no. 111H7180) 100 μg/ml in 0.1 ml complete Freund's adjuvant (Sigma batch no. 084H8800). The collagen was administered s.c. into the base of the tail. The volume of each hind paw was measured using a plathysmometer (Hugo Basill, Italy) before collagen administration and on days 1, 4, 7, 10, 13 and 16 of treatment (30 minutes after drug treatment).
Five treatment groups were tested in the present study: vehicle (blank cosolvent) 10 ml/kg once daily, HU-211 10 mg/kg every three days, HU-211 20 mg/kg once daily, HU-211 20 mg/kg every 3 days and diclofenac 10 mg/kg (10 ml/kg) every 3 days. All treatments were administered intraperitoneally. HU-211 was used from a 5% preparation in cosolvent (Pharmos batch no. PRN-C-08623041), by diluting with saline (B. Braun batch no. 3431A41A) 1:25. The same procedure was performed with blank cosolvent (Pharmos batch no. 608945). Diclofenac was prepared in Pharmos, batch no. LG-121\70 1 mg/ml. At the same time paws were measured they were clinically evaluated according to the following method (Williams R. O., Proc. Natl. Acad. Sci. USA: 89:9784-9788): 0—normal, 1—slight swelling and erythema, 2—pronounced edematous swelling and 3—joint rigidity. On day fifteen of treatment animals were euthanised with pentobarbital 100 mg/kg i.p. (Pental veterinary, C.T.S. Israel, batch no. 170005). Blood samples were taken for hematocrit and blood levels of HU-211 (in heparinized serum).

Compound	reduction of collagen-induced paw edema compared to vehicle (HU-211 10 mg/kg i.p. every 3 days, p<0.05)	reduction of collagen-induced paw edema compared to vehicle (HU-211 20 mg/kg i.p. once daily, p<0.05)	reduction of collagen-induced paw edema compared to vehicle (diclofenac 10 mg/kg i.p. every 3 days, did not reach statistical significance)
CCCCCCC(C)(C)c1cc(O)c2c(c1)OC(C)(C)[C@H]1CC=C(CO)C[C@H]21 [HU-211, (+)-(3S,4S)-1,1-dimethylheptyl homologue of 7-hydroxy-Δ^6-tetrahydrocannabinol]	30-50%	30-50%	–
O=C(O)Cc1ccccc1Nc1c(Cl)cccc1Cl [diclofenac, reference compound]	–	–	30-50%
